In the supplement of paper PMC11732987, “Enantioselective OTUD7B fragment discovery through chemoproteomics screening and high-throughput optimisation” (Communications Chemistry, 2025):
The list shows a part of the results. The data scatter; read single values as rough.

Protein sequences, listed by entry. Tags and fused reporters are not part of them. Lines headed by an entry give the natural chain unless they say otherwise; changes in a name come on top. Residues count along the entry.
UniProt O95071, 605-632: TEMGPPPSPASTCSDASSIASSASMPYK
UniProt P54578: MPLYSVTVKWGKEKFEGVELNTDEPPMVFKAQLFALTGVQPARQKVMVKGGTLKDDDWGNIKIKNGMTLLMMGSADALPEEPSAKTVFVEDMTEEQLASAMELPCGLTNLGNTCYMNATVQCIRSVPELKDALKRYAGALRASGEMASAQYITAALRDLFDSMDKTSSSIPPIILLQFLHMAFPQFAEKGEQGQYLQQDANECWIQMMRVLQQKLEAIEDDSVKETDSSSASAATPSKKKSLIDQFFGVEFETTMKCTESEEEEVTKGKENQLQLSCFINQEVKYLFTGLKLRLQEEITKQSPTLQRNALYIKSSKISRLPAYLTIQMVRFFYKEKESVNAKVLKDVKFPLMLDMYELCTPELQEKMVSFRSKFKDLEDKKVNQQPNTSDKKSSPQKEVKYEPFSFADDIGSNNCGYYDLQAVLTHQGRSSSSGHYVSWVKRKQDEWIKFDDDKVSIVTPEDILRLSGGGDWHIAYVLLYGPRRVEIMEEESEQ
UniProt Q9C0B0: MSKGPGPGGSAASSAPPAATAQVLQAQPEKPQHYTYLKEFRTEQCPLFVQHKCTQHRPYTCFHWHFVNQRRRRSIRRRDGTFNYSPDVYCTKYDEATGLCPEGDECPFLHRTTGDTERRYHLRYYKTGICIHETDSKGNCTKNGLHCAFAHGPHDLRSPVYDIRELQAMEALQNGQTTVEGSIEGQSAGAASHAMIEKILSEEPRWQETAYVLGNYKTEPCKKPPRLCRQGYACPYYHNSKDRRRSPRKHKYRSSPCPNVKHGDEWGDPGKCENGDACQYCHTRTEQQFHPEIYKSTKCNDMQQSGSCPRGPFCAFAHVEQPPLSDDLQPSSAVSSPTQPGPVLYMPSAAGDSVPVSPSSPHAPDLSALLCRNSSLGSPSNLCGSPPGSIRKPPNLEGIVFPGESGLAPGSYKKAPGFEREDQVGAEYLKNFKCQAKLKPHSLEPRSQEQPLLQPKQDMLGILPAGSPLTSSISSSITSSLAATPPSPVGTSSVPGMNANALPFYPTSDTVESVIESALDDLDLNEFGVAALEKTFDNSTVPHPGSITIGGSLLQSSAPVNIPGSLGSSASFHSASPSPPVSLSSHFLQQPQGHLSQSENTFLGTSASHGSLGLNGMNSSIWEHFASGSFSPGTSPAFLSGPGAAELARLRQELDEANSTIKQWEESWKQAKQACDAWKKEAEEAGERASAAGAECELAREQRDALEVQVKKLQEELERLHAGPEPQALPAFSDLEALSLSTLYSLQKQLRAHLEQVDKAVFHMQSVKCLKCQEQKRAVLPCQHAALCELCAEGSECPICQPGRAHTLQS
UniProt Q9BRT2: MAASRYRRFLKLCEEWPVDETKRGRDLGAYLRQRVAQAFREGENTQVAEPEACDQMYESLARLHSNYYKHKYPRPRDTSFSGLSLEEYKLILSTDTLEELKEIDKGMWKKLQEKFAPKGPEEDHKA
UniProt Q70CQ2: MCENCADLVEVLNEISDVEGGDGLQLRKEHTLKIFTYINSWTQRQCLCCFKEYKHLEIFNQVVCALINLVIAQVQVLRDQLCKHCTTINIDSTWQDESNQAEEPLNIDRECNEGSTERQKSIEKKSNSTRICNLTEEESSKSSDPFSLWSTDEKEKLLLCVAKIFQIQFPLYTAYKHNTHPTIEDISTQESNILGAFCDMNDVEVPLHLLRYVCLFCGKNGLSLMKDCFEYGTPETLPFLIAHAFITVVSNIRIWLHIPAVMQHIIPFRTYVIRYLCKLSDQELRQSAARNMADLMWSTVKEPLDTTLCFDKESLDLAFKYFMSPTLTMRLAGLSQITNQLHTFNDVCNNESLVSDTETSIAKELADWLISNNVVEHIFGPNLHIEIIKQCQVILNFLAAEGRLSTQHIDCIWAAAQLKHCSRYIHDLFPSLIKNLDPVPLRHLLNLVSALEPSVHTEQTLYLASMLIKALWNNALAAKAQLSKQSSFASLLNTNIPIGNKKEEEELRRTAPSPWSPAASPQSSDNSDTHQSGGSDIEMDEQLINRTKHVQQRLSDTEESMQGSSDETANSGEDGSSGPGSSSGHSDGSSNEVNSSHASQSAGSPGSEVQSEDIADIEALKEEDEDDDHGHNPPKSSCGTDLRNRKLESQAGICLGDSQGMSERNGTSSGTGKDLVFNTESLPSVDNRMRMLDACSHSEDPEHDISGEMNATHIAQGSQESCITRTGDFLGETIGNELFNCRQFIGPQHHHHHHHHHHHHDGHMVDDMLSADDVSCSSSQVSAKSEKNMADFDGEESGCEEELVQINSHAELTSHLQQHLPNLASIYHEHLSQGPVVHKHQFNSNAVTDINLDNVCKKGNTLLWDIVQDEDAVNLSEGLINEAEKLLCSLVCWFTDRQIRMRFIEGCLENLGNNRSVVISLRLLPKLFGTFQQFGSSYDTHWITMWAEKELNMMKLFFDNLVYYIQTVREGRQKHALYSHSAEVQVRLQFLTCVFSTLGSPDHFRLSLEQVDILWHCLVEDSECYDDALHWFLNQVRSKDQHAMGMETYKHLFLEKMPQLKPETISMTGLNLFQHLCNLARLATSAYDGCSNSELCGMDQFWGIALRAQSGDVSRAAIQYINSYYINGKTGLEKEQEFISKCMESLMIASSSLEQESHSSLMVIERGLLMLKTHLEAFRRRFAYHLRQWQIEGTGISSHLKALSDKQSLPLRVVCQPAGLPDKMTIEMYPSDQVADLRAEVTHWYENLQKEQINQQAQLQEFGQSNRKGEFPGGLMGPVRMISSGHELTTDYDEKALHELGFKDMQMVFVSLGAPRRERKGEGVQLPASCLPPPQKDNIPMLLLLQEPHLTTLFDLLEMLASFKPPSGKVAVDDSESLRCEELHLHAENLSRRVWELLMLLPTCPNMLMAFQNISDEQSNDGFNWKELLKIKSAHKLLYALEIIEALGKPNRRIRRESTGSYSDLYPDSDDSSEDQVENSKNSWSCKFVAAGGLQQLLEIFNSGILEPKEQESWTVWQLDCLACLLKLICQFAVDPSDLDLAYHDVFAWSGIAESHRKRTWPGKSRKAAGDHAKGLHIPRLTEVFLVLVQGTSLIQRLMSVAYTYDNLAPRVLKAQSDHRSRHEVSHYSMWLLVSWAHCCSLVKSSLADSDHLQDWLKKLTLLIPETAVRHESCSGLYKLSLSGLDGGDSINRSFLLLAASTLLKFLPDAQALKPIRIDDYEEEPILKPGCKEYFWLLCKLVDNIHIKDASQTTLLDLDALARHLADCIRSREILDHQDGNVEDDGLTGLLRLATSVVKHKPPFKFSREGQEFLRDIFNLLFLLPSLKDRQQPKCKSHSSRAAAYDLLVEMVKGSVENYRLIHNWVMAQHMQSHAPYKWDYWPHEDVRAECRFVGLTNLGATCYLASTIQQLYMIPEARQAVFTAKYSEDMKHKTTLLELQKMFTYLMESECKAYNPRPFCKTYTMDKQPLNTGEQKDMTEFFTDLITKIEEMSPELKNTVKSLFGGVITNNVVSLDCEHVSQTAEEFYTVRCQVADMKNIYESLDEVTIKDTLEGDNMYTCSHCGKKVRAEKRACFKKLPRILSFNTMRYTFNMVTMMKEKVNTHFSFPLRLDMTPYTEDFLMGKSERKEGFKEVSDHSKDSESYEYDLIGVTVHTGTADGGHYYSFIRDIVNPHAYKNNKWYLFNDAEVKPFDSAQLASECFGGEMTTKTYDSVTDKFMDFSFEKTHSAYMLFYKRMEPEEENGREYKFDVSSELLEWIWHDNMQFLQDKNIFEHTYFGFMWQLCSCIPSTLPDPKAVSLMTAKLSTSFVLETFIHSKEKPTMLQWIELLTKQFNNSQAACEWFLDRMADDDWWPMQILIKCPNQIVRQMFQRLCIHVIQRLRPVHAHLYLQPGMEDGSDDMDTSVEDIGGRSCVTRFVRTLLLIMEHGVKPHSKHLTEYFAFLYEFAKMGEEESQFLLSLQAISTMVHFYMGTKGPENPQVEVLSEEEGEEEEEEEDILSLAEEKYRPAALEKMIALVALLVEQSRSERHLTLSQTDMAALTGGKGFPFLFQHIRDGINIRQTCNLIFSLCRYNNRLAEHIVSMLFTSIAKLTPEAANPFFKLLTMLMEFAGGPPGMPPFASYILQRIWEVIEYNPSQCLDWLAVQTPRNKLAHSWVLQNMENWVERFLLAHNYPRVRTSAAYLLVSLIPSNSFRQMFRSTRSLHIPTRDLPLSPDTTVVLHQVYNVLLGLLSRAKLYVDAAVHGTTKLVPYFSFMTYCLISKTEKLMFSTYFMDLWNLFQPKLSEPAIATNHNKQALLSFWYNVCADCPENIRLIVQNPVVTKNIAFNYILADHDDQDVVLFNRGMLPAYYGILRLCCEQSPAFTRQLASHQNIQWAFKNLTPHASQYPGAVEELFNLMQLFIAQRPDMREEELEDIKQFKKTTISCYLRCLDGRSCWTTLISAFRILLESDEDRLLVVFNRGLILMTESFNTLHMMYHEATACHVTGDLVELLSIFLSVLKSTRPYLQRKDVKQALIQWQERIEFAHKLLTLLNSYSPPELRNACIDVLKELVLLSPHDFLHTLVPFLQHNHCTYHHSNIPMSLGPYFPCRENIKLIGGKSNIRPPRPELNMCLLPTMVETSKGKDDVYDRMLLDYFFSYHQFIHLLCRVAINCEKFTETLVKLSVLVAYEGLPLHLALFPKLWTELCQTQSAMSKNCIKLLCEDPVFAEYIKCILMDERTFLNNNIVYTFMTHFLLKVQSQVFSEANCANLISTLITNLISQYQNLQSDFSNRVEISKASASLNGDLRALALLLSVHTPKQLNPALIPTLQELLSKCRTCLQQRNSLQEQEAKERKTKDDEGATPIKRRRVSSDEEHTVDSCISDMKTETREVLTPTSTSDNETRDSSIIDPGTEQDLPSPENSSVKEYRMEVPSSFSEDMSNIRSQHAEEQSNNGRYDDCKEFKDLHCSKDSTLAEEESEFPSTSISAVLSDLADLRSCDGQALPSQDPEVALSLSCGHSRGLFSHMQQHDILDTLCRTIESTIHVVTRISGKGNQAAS
UniProt Q9H270: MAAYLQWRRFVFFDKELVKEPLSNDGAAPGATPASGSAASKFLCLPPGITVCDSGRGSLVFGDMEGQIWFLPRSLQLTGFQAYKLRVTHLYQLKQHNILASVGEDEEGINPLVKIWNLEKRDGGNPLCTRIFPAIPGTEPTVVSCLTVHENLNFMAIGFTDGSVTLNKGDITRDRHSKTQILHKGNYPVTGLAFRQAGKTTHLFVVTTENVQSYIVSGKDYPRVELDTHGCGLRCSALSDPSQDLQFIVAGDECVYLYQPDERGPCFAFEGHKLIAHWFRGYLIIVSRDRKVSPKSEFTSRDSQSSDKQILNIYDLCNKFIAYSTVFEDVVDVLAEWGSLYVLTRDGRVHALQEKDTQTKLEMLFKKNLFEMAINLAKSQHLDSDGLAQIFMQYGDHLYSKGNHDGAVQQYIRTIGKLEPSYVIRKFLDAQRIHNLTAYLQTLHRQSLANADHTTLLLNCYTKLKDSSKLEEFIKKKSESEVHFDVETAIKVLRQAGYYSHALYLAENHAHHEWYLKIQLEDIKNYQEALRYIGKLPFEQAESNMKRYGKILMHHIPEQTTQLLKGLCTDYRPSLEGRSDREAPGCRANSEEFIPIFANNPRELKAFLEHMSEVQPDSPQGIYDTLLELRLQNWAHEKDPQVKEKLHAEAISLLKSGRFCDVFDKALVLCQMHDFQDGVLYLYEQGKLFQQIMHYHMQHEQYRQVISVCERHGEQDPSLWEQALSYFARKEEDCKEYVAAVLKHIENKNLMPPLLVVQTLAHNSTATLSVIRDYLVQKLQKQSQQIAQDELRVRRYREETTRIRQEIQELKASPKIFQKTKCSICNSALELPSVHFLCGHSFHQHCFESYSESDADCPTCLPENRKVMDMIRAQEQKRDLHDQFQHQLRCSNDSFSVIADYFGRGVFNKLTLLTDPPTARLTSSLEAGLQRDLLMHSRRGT
UniProt P31930, 143-163: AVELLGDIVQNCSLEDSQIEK
UniProt Q9H267: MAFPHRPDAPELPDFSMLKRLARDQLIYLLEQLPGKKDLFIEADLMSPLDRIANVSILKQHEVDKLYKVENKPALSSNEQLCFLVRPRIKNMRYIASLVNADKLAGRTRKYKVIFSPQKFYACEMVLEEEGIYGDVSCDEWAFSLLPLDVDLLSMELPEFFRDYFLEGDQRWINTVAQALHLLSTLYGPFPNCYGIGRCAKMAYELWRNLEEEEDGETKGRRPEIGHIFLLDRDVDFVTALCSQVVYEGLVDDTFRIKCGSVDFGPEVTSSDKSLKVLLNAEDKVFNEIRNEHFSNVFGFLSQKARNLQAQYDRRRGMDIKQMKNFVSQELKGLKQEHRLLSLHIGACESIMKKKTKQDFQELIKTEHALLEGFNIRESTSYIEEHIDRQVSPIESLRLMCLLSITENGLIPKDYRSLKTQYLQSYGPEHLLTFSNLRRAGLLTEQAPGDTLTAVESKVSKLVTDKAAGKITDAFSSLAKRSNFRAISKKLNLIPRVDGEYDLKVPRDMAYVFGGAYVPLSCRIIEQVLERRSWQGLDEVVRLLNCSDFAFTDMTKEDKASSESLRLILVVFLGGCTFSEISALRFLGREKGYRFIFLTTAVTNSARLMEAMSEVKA

Compound: ClCC(=O)N[C@H]1CCCc2ccccc12
Test: log2 mean competition ratio of IA-DTB cysteine labelling (DMSO/compound) (log2 ratio); higher = stronger cysteine engagement by compound
Conditions: treatment time: 4 h, cell line lysate: HEK293T
Protocol: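 IA-DTB competitive cysteine chemoproteomics in HEK293T RIPA lysate. Lysates were treated with compound 29 or 30 at 50 or 200 µM for 4 h, then IA-DTB (500 µM, 1 h), trypsin-digested, NeutrAvidin-enriched and analysed by diaPASEF. Competition ratio = intensity DMSO / intensity compound (n=4 treated, n=64 DMSO); binding: mean log2 CR ≥ 1 and p ≤ 0.05 plus QC filters. Target is the cysteine site.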

Target	log2 mean competition ratio (50 µM)	log2 mean competition ratio (200 µM)
ULBP2 C50 (UniProt Q9BZM5)	-0.0282	0.36
URGCP C905 (UniProt Q8TCY9)	0.049	-0.322
UBR5 C617 (UniProt O95071)	-0.372	-0.12
VPS26C C243 (UniProt O14972)	0.2	0.452
USP14 C257 (UniProt P54578)	-0.371	-0.145
VPS26C C137 (UniProt O14972)	-0.144	0.0134
UNK C45 (UniProt Q9C0B0)	-0.00536	-0.000886
UQCC2 C13 (UniProt Q9BRT2)	0.0308	0.0635
USP9X C1061 (UniProt Q93008)	0.634	-0.0221
VDAC2 C47	0.182	0.151
VBP1 C113 (UniProt P61758)	0.403	0.433
USP34 C1380 (UniProt Q70CQ2)	-0.937	0.187
VPS11 C660 (UniProt Q9H270)	-0.116	0.211
UQCRC1 C154 (UniProt P31930)	-0.0682	-0.395
VPS13C C2184 (UniProt Q709C8)	0.118	-0.226
USP54 C88 (UniProt Q70EL1)	0.186	0.112
UCK2 C241 (UniProt Q9BZX2)	0.0957	0.169
USP24 C873 (UniProt Q9UPU5)	0.623	0.116
USP9X C540 (UniProt Q93008)	0.0368	-0.138
UNC45A C223 (UniProt Q9H3U1)	-0.101	-0.168
USP34 C907 (UniProt Q70CQ2)	0.0882	-0.344
VAC14 C324 (UniProt Q08AM6)	0.0663	-0.00502
VPS33B C546 (UniProt Q9H267)	-0.278	-0.238

Fetched one by one from above (2):
Target	log2 mean competition ratio (50 µM)	log2 mean competition ratio (200 µM)
UNK C45 (UniProt Q9C0B0)	-0.00536	-0.000886
USP34 C1380 (UniProt Q70CQ2)	-0.937	0.187
